# Measurements reported in the supplement of paper PMC5355238.
# Structures can show the parent of a compound that is named as a salt. This is one part of the list. Single values are uncertain, as repeats are few or missing.
# Test system: Reh
# Assay: S-phase gammaH2AX median, Z-score vs plate median (drug alone); higher = more S-phase DNA damage
# Conditions: MK1775 concentration 0 nM; 10 µM; 4 h
row,Structure (SMILES),S-phase gammaH2AX median (Z-score)
1,C[C@](N)(Cc1ccc(O)cc1)C(=O)O [L-alpha-Methyl-p-tyrosine],0.0331
2,C[N+](C)(C)CCOP(=O)(O)OP(=O)([O-])OC[C@H]1O[C@@H](n2ccc(N)nc2=O)[C@H](O)[C@@H]1O [Citicoline sodium],-0.0621
3,CN=c1nc(-c2ccccc2)n(-c2ccccc2)s1,0.147
4,c1ccc2c(c1)CCCC2C1=NCCN1 (configuration not stated) [Tetrahydrozoline hydrochloride],-0.0868
5,CNc1ncnc2c1ncn2[C@@H]1O[C@H](CO)[C@@H](O)[C@H]1O [N6-Methyladenosine],-0.289
6,N[C@@H](CC(=O)O)C(=O)O [L-Aspartic acid],0.035
7,O=C(OCCN1CCOCC1)C1(c2ccccc2)CCCCC1,0.0237
8,CC(C)C[C@H](NC(=O)[C@H](Cc1ccccc1)NC(=O)c1cnccn1)B(O)O [Bortezomib (Velcade)],-0.0128
9,COc1ccc(CC(C)NCC(O)c2ccc(O)c(NC=O)c2)cc1 (configuration not stated) [Formoterol],0.0409
10,CS(=O)(=O)c1ccc(C(=O)Nc2ccc(Cl)c(-c3ccccn3)c2)c(Cl)c1 [Vismodegib (GDC-0449)],0.0329
11,CCOC(=O)N1CCC(=C2c3ccc(Cl)cc3CCc3cccnc32)CC1 [Loratadine],0.21
12,CCCCN1CCC(n2c(=O)[nH]c3ccccc32)CC1 [NS 521 oxalate],0.0142
13,CC1(C)CCC(c2ccc(Cl)cc2)=C(CN2CCN(c3ccc(C(=O)NS(=O)(=O)c4ccc(N[C@H](CCN5CCOCC5)CSc5ccccc5)c(S(=O)(=O)C(F)(F)F)c4)cc3)CC2)C1 [ABT-263 (Navitoclax)],0.144
14,O=C1NC(=O)/C(=C\c2cccc(C(F)(F)F)c2)S1,0.182
15,C[C@]12CCC(=O)C=C1CC[C@@H]1[C@@H]2C(=O)C[C@@]2(C)[C@H]1CC[C@]2(O)C(=O)CO [Cortisone],-0.173
16,COCCCC/C(=N\OCCN)c1ccc(C(F)(F)F)cc1 [Fluvoxamine maleate],-0.117
17,O=S(=O)(O)C1CCNCC1 [Piperidine-4-sulphonic acid],0.151
18,COc1cc2nc(N3CCN(C(=O)OCc4ccccc4)[C@H](C(=O)NC(C)(C)C)C3)nc(N)c2cc1OC,-0.214
19,CNC(=O)[C@H]1O[C@@H](n2cnc3c(N)ncnc32)[C@H](O)[C@@H]1O [5'-N-Methyl carboxamidoadenosine],0.101

# Fetched by compound from above:
row,Structure (SMILES),S-phase gammaH2AX median (Z-score)
3,CN=c1nc(-c2ccccc2)n(-c2ccccc2)s1,0.147
7,O=C(OCCN1CCOCC1)C1(c2ccccc2)CCCCC1,0.0237

# Additional entries:

row,Structure (SMILES),S-phase gammaH2AX median (Z-score)
1,CCCCCCCCCCCCCCCC(=O)NCC(COP(=O)([O-])OCC[N+](C)(C)C)OCC (racemic) [rac-2-Ethoxy-3-hexadecanamido-1-propylphosphocholine],-0.126
2,CCc1ccc(CCOc2ccc(CC3SC(=O)NC3=O)cc2)nc1 (configuration not stated) [Pioglitazone (Actos)],0.193
3,O=C(CCCCCCC(=O)Nc1cccnc1)NO [Pyroxamide],0.383
4,Cc1ccc(S(=O)(=O)C=CC#N)cc1,0.0684
5,Cc1ccc(N(CC2=NCCN2)c2cccc(O)c2)cc1 [Phentolamine mesylate],0.296
6,CC(C(=O)O)c1ccc(CC2CCCC2=O)cc1 (configuration not stated) [loxoprofen],-0.0598
7,O=C(c1cc(Cc2n[nH]c(=O)c3ccccc23)ccc1F)N1CCN(C(=O)C2CC2)CC1 [Olaparib (AZD2281)],1.15
8,Clc1ccc2c(c1)C(N1CCNCC1)=Nc1ccccc1O2 [Amoxapine],-0.0563
9,O=C(O)CCc1nc(-c2ccccc2)c(-c2ccccc2)o1 [Oxaprozin],0.0781
10,NCCCCC(=O)O [5-Aminovaleric acid hydrochloride],-0.0699
11,OCCN1CCN(CCCN2c3ccccc3Sc3ccc(C(F)(F)F)cc32)CC1 [Fluphenazine dihydrochloride],-0.236
12,"CCCn1c(=O)c2c(ncn2C)n(CCC)c1=O [1,3-Dipropyl-7-methylxanthine]",-0.0945
13,C[C@H]1C[C@H]2[C@@H]3CCC4=CC(=O)C=C[C@]4(C)[C@@]3(F)[C@@H](O)C[C@]2(C)[C@@]1(O)C(=O)CO [Betamethasone],-0.0563
14,CC1=Nc2ccc(Cl)cc2S(=O)(=O)N1 [Diazoxide],0.0472
15,Cc1ccc(Cl)c(Nc2ccccc2C(=O)O)c1Cl [Meclofenamic acid sodium],-0.551
16,COC(=O)C1=C(C)NC(C)=C(C(=O)OCCCN2CCC(c3ccccc3)(c3ccccc3)CC2)[C@H]1c1cccc([N+](=O)[O-])c1 [S-(+)-Niguldipine hydrochloride],-0.00889
17,"CN(C)CCOc1ccc(/C(=C(/CCCl)c2ccccc2)c2ccccc2)cc1 [Toremifene Citrate (Fareston, Acapodene)]",0.000387
18,CCn1nc(C(=O)O)c(=O)c2cc3c(cc21)OCO3 [Cinoxacin],0.0291
